Results from PubChem BioAssay AID1508600 (Functional Genomics Laboratory (NCATS/FGL), 2020).
Screen size: about 53,000 sequences; about 3,700 (7%) were called active.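 How the source made its calls: active means gene knockdowns whose robust z-score for IL-1 alpha signal is at least 2 or at most -2, so actives lie on both sides; inactive means the rest.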 The list shows a part of the results.

Assay: Components of the Cytosolic LPS Sensing Pathway: Gene Identification via Genome-wide siRNA Screen;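 further: robust z of the log signal after scaling to non-targeting control siRNA wells of the plate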
Conditions: RAW264.7 macrophages, IL-1a HTRF, actives lie on both sides, screened at 100 nM (by protocol), cells primed 5 h with Pam3CSK4 first
Outline: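 Cells (RAW264.7, 1×10^4 per well) were transfected with siRNA at 100 nM and cultured 48h at 37 degrees C. Pam3CSK4 was added for 5 hours; LipidA transfection followed for 24 hour. IL-1a was then measured by HTRF.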
In the case of GGAAAGUUUGAAGAUGUGUTT against Mknk1, the z-score is reported as inactive: -0.643. With CGAUCGUAUUCAAUGGAAATT against Rims2 the z-score was inactive: -0.998. In the case of GCUUUGAUAGAUACUUCUGTT against Chrm2, the z-score is reported as inactive: -0.471. With GGUGAUAUUGUUGUACUUATT against Olfr1058 the z-score was inactive: -0.624. With CCCUUUAACAGCAAUUGUATT against Pramel4 the z-score was inactive: 0.383. In the case of GGUUGUUUGACCAACAGCUTT against Inpp5d, the z-score is reported as inactive: -1.51. With GGUGCUAAAAAUGAGCCUUTT against Urm1 the z-score was inactive: -1.66. In the case of GCAUUUCAAUCGCACGUUUTT against Gal3st2, the z-score is reported as inactive: -0.893. For CCGUAGAAGGGUUCAACACTT against Fam151a, the z-score was inactive: 0.613. For GCUAAGACACCGAGAGGAATT against Rassf4, the z-score was inactive: 1.67. For GGUUUUGUUCAGAUCAGAUTT against Gemin6, the z-score was inactive: 0.346. With GCUACUUUGUGAAGAAACCTT against Cntrob the z-score was inactive: -0.832. In the case of GCACACCUCUAUCCUUUUGTT against Pcsk9, the z-score is reported as inactive: -1.59. In the case of GGACAAGUCGAAGAGUGAGTT against Ing1, the z-score is reported as active: -2.26. In the case of CCUAUAUUGGAGAGAUAUUTT against Serpinb6a, the z-score is reported as inactive: 0.0211. For CCAUGCCAAGUCUCUACACTT against Tmem150a, the z-score was inactive: 0.0206. With GGAAUAGGUUGGAUCACAATT against Prxl2c the z-score was inactive: 0.258. For GGGAUUUCUUUUUCUAGUUTT against Fgd5, the z-score was inactive: -1.62. For GGCCUGGGAAGUGAACAAATT against Faah, the z-score was inactive: -0.721. For GGAGCUUUCCAUAUAUAAGTT against Sgcb, the z-score was inactive: 0.175. In the case of GCUUCAAUGUAUUUUUUGCTT against Olfr1459, the z-score is reported as inactive: -1.83. In the case of GCAUCAUUACUGGAUUCCUTT against Olfr859, the z-score is reported as inactive: -0.521. With GGUGCUAAUGACCUUUGAATT against Dbp the z-score was inactive: -1.5. In the case of GCUGUCACCUACAGAAAAATT against Msantd1, the z-score is reported as inactive: -0.748. With GCUCGAGAUCGAAACAUACTT against Tmed5 the z-score was inactive: -1.13. With CCAUAAUUCCAGAACAUACTT against Hspg2 the z-score was inactive: 0.961. For “GGAUUUUAAAGUCAUGUCATT against D130040H23Rik”, the z-score was inactive: -1.79. With GGAUGAAGAGGUUGGAGAUTT against Cct3 the z-score was inactive: -0.234. In the case of GCCUAAGCUUGUAUGUUUGTT against Anapc2, the z-score is reported as inactive: -0.119. With GGUUCUUUGUUUCUUUCGUTT against Dcaf12l2 the z-score was inactive: -0.954. For GGAAUCUGUCAUGUGAAUATT against Slc1a5, the z-score was inactive: -0.0766. With GGUCACCAGUACCUAUGGATT against Bricd5 the z-score was active: -2.17. For CCCUAGAUGAGAAUCAUAGTT against Kdm5c, the z-score was inactive: 0.52. With GGUGGUAUGCAAGAUUACATT against Cpd the z-score was inactive: 0.922. In the case of CGUGGCUUCUUUCCGCUCUTT against Mtmr4, the z-score is reported as inactive: -0.55. With GCUACAGGUCAAUGUCGUGTT against Tcte2 the z-score was inactive: -1.61. With GCUGAUACGAGGAACAGAGTT against Fmr1nb the z-score was inactive: 0.728. For GCCAACGUAUUUGUGGCAUTT against Olfr1183, the z-score was inactive: 0.983. In the case of GGAUGAACCUUCUGACCAATT against Klk1b4, the z-score is reported as inactive: 1.63. With GGCUUUAAUGAAAUUAUGGTT against Asap2 the z-score was inactive: 1.4. In the case of GGGAGUCCCUGUGCUUAUATT against Arl4a, the z-score is reported as inactive: 0.458. With GCUAGAAUGUCUCAAUACUTT against Spdl1 the z-score was inactive: -0.508. With GCAGCAUGGAGUUCACUAUTT against Tapbp the z-score was inactive: -0.25. In the case of CCUUUUUGAUGCCAUCGUUTT against Dclk3, the z-score is reported as inactive: 0.844. For GGUUCCCAAUACUAUCAGGTT against Kif26b, the z-score was inactive: 0.209. In the case of GGUGGUGCUUAAGUCCAUCTT against Cacna1b, the z-score is reported as inactive: 0.969. With GGAUCUUAAGUCCUAACAUTT against Tacc3 the z-score was active: -2.37. With GGUUUCCAGUAAGAUCUUATT against Mdn1 the z-score was active: 2.21. For CCUGUGACGAAUUUGAGCGTT against Il13ra1, the z-score was inactive: -0.122. For GUUUGCCAGAACUCUGAAATT against Lyz2, the z-score was inactive: -0.303. For GCCGUAUCACCCUAAACUATT against Pxylp1, the z-score was active: 2.05. With CCCUGCUCUCACUUGUUUATT against Olfr643 the z-score was inactive: -0.446. In the case of GGAAUAUGAAGACAUAGCUTT against Ogt, the z-score is reported as inactive: -0.546. With GGUGUUUGGGUACCAGUCUTT against Cyp8b1 the z-score was inactive: -1.03. With GGAACAACAUCCUAUGCUCTT against Ranbp17 the z-score was inactive: 0.759. For “GGCCAGUGGAGGAAUAUGATT against 1300017J02Rik”, the z-score was inactive: -0.383. In the case of GGACUUCAGUGAGGAUCAATT against Scg5, the z-score is reported as inactive: 0.866. For GCCAGAUCCCUGGAAUGUATT against Ece2, the z-score was inactive: -0.632. With GCUACAUUCAAAUAUGACCTT against Cd207 the z-score was inactive: 0.996. In the case of GCCAUAUGAUAAUAUAGAGTT against Gbp6, the z-score is reported as inactive: -0.574. In the case of GGUCAUAAGAUUAGGGUCATT against Nmnat3, the z-score is reported as inactive: -1.61. For GGCACCAAAAUCAAUGAAATT against Pcbp3, the z-score was inactive: -0.182. For GGAUUGUCAUUGACAAAACTT against Slc31a2, the z-score was inactive: -0.36. For GGAGCUAGCAGAGAUAACCTT against Ube2e3, the z-score was inactive: 0.0606. With CCAGUACUCGUUUCACUUATT against Mrpl15 the z-score was inactive: 0.374. For GGUGCAGAGUUACACGUGCTT against H2-T10, the z-score was inactive: 1.07. For GGAAGUCCAAGAGAGGUUGTT against Dxo, the z-score was inactive: -0.424. For CGAAUAGGGAGCCAUAAGATT against Tubb6, the z-score was inactive: 1.66. With GCCAUAUCAACCGUAUUGGTT against Lzts3 the z-score was active: -2.58. With CGGAUCAUUGCCAAUAUCATT against Adam33 the z-score was inactive: -0.48. With GCUAUAACCUCACCGAGAATT against Tedc2 the z-score was active: 2.09. In the case of GGCCUCUCCACUUGUGAAGTT against Ghitm, the z-score is reported as inactive: 1.11. For AAGUCUGAUUGAAGAGGAATT against Gnrh1, the z-score was inactive: 1.26. In the case of CCUUACCUGCCCUAGCAAUTT against Acsbg1, the z-score is reported as inactive: -1.13. With CCAUUAAUAUCUCAUGUGATT against Fshr the z-score was inactive: -0.323. With GGUGAAGUCACUAAUCUUUTT against Prpf19 the z-score was inactive: 1.12. In the case of GGAACUGGUGAUAGGAGUCTT against Olfr513, the z-score is reported as inactive: -1.19. In the case of GGAGAAAAUCAACAAGAUCTT against Ppp2r2c, the z-score is reported as inactive: -0.437. In the case of GGUGCUUUCCACGAUCAACTT against Tbl2, the z-score is reported as inactive: -0.404. In the case of GGAACAGGACUUUUGAUAATT against Pan3, the z-score is reported as inactive: -1.08. In the case of GGGAGAGCAAAACUAUUUCTT against Padi6, the z-score is reported as inactive: 0.429. With GCAAGAAAAGGUGCUAUCUTT against Med4 the z-score was inactive: -0.314. With GAUUGUUGCACGGCUGAAGTT against Cxcl12 the z-score was inactive: 1.68. For CCAAGAUCACUCCUGAAAGTT against Gm9991, the z-score was inactive: -0.386. For GGCAGUCAAUAGUGGCCUGTT against Bcor, the z-score was inactive: 1.12. For GCUCGCACAUUUGACUUGGTT against Wdr70, the z-score was inactive: 0.807. For GCUUAAGUGUGAUACAGUGTT against Rars2, the z-score was active: 2.45. In the case of CGUACUUUAGGCAACCUAATT against Tmtc4, the z-score is reported as inactive: 0.366. With GGAAUGUCAGUCAACACCGTT against Tfap2b the z-score was inactive: 0.521. In the case of CCUGUGGUGUUAAUAAGAUTT against Simc1, the z-score is reported as inactive: 0.445. For GGUCCUCAAGCUCAUGGAUTT against Rogdi, the z-score was inactive: 0.327. In the case of GAAUUGGACAACUUUCUCCTT against Olfr8, the z-score is reported as inactive: -1.3. In the case of GUUGUAAUUGGUUAUGUGCTT against Pigp, the z-score is reported as inactive: 0.472. With GGGUCAUGUUAACUCUAAATT against Nobox the z-score was inactive: -0.285. With GGGCUUUUGUUUUGAAACATT against Smc1b the z-score was inactive: -1.42. With CGGCGUGCACUCUGGAUAATT against C2cd5 the z-score was inactive: -1.63. In the case of GGCCAAAACCACAAAGAAGTT against Rpl36al, the z-score is reported as inactive: -1.07. With GCAGGAACCAUACUCUACATT against Adap1 the z-score was inactive: 0.0843. In the case of GCGUAUGACAUAAAGAUAGTT against Ctbs, the z-score is reported as inactive: -0.315. For GAUACUCUUUGGGCCAUUGTT against Vmn2r42, the z-score was inactive: -0.444. For GCACUAAAGAAGUUACUGCTT against Olfr126, the z-score was inactive: 0.377. In the case of GGUUUGGUACAUUUGCAUCTT against Olfr616, the z-score is reported as inactive: -0.661. With GCUGAAUGAUAUGGAACCUTT against Vapa the z-score was inactive: -1.76. In the case of GCCAGAUUGUGGUCAUGACTT against Olfr365, the z-score is reported as inactive: 0.5. With GGAUUAACUCUUGAAAGUUTT against Cd4 the z-score was inactive: 0.59. With GCCAUUACAAGUGAUAUAATT against Ufl1 the z-score was inactive: 0.268. For GCCGCCAAGUUUCGAUUCGTT against Htr5b, the z-score was inactive: 1.46.
